For one experiment, the target named is T1, Flag-SENP1 (UniProt Q9P0U3).
T1 sequence: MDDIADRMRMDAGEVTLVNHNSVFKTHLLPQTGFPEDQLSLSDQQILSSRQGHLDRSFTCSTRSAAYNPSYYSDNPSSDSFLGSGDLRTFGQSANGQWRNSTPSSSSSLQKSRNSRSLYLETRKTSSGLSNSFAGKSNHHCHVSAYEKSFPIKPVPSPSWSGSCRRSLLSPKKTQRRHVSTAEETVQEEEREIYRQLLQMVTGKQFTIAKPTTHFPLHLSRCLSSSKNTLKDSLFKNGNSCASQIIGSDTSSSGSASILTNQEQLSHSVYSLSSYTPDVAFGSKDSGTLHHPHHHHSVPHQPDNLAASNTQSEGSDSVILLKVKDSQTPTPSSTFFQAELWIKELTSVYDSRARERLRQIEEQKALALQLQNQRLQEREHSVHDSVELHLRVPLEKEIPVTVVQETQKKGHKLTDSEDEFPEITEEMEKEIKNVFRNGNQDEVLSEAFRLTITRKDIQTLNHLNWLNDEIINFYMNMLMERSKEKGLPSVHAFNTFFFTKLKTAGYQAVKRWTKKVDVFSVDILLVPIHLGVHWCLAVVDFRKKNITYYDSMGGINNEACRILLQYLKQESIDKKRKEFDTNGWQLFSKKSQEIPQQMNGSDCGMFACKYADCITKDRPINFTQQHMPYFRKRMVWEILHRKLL
Put plainly: co-IP; HEK293T cells transfected with Flag-SENP1 and HA-ENO1; lysate, antibody overnight, Protein A/G PLUS-Agarose, immunoblot. (In general: In western blotting, separated proteins are transferred to a membrane and probed.)

Amino acid sequences for entries named in this document (tags omitted).
UniProt P06733: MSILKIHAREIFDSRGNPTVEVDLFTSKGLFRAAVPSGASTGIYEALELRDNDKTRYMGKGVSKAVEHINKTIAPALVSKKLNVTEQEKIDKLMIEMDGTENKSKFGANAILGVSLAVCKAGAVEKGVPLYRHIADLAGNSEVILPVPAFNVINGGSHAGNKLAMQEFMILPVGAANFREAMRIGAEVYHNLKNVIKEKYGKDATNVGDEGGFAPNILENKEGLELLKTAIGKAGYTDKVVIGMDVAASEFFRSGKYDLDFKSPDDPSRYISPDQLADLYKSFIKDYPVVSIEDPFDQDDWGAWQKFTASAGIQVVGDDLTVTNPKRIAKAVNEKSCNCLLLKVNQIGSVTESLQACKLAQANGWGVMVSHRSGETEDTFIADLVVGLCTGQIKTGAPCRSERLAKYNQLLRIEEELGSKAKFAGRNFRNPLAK

Experiment [1] addresses T2, SENP1 (Sentrin-specific protease 1), endogenous in gastric cancer cells (human (endogenous in MKN-45 and HGC-27)) (UniProt Q9P0U3).
T2 sequence: T1 sequence
As to the kind of experiment: co-IP; endogenous proteins in MKN-45 and HGC-27 lysates (RIPA buffer with PMSF); antibody overnight, Protein A/G PLUS-Agarose, immunoblot.

These are yes or no findings as the source states them, for the method shown. Binding seen in cells or lysates may run through a third protein. Some entries that bind do so weakly or less than the wild type. For some assays here: Sequences can lack the tags named with a protein.

Regarding “HA-ENO1 (from UniProt P06733 1-434) (enzyme)”, the binding entry with Flag-SENP1 is “binds”.
As to “α-enolase (ENO1), endogenous in gastric cancer cells (from UniProt P06733 1-434) (enzyme)”, in experiment [1], the binding result is recorded as “binds”.
